Measurements from patent US20180346565A1 (AbbVie / Abbott, published 2018).
Results are given in words; binding and its absence hold for the method and conditions named. Some results given as binding are weak or reduced against the parent protein; the word gives no strength.

Sequences of proteins named here, by UniProt entry; tags and fusion partners are left off. Residues count along the entry.
UniProt Q9NYJ7, residues 27-492: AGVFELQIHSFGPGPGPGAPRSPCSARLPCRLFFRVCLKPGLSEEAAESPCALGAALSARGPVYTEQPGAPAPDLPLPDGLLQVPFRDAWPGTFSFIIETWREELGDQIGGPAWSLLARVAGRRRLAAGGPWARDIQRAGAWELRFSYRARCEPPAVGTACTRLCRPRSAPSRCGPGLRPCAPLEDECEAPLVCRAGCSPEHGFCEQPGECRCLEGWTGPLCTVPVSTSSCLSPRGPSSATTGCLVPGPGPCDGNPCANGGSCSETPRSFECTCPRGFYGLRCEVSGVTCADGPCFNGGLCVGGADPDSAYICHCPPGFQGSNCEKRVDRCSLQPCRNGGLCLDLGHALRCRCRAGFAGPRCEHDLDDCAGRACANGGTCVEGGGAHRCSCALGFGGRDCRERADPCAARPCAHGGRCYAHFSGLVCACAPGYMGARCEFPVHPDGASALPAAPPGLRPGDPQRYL

Target: DLL3 purified protein (human) (UniProt Q9NYJ7)
Experiment: ELISA, plate coated with 1 ug/ml purified DLL3, serially diluted antibody, detection with HRP-conjugated anti-human IgG1 reporter mAb, TMB, OD450

B1: hSC16.56 (antibody, human IgG1, kappa, V domains shown)
VH: QVQLVQSGAEVKKPGASVKVSCKASGYTFTNYGMNWVRQAPGQGLEWMGWINTYTGEPTYADDFKGRVTMTTDTSTSTAYMELRSLRSDDTAVYYCARIGDSSPSDYWGQGTLVTVSS
VL: EIVMTQSPATLSVSPGERATLSCKASQSVSNDVVWYQQKPGQAPRLLIYYASNRYTGIPARFSGSGSGTEFTLTISSLQSEDFAVYYCQQDYTSPWTFGQGTKLEIKR
notes: Native human IgG1/kappa; also called humanized SC16.56; humanized anti-DLL3 antibody hSC16.56
In the case of B1, the binding is reported as “binds”.
